Test results published in article doi:10.1101/2020.12.08.416701.
Results are given in words; binding and its absence hold for the method and conditions named. For some of these results: Binding can be weak; no strength is given. For some of these results: Where a sequence is shown, tags or fusion partners need not be part of it.

Tests used:
[1] = target: T1, biotinylated avi-tagged TβRI (human) (UniProt P36897); test: SPR
T1 sequence (chain, biotin (biotinylated avi tag)): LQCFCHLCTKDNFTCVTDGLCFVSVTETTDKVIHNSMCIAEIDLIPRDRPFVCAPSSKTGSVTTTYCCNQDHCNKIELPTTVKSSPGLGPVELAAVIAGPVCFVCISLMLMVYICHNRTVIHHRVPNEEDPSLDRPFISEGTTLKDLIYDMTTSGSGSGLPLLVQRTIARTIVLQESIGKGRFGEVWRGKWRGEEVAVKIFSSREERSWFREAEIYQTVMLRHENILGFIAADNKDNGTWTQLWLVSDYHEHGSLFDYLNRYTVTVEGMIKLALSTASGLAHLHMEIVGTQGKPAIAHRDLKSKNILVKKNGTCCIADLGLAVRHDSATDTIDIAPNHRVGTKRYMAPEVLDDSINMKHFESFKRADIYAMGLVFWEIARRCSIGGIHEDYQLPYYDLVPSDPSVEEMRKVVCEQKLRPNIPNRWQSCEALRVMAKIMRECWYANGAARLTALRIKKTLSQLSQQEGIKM

TβRI ectodomain (human) = target: T2, TβRI ectodomain (human) (UniProt P36897); test: NMR titration
T2 sequence: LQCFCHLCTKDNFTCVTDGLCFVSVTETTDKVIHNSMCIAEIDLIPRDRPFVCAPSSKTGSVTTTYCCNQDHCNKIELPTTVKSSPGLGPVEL

Substance	binding [1]	binding (TβRI ectodomain (human))
TGM domain 1 (Heligmosomoides polygyrus) (domain or fragment)	no binding (tested: 1.0 μM)	binds weakly
TGM domain 2 (Heligmosomoides polygyrus) (domain or fragment)		binds
TGM domain 3 (Heligmosomoides polygyrus) (domain or fragment)	no binding (tested: 1.0 μM)	
